This is one part of the list.

Sequences and labels used below:
B1: il2ra_site2_3nfp_normal_mot_HHH_b1_01086_af2_000000264_0001_39_53_H_._HHH_b1_01084_0001_0000100005_0000001_1_af2pred_0001_af2pred (protein)
chain: SSSSSSSEEEVERLLEEAERVDEEERLHLLAQAVIVAMEANDPELLELVEKASRELQGSSSSSSS
B2: il2ra_site1_1z92_sap_14_mot_HHH_b1_04602_000000153_0001_1_19_H_._HHH_b1_00430_0001_0000200020_0000001_0_0001_af2pred_0001_af2pred (protein)
chain: SSSSSEEVSRFLLEQAERAFELNNEKLLKRLLEMIEKAVEEEGDPAFEEALKKVEKLLRELSSSS
B3: il2ra_site1_1z92_sap_16_mot_e13e5361d6bfe40ac0affc314a60e3b1_0001_af2_000000276_0001_36_50_H_._HHH_b1_08148_0001_0000100003_0000001_0_0001_af2pred_0001_af2pred_ … (protein)
chain: DLERAVRKFAEVAAKLAGVPSVEVELRNNEIHVTVEGNEEASETLERLIRAAARLLGVPVTVETE
B4: il2ra_site1_3nfp_sap_18_mot_HHH_b2_03135_af2_000000097_0001_42_55_H_._HHH_b2_05121_0001_0000400027_0000001_0_0001_af2pred_0001_af2pred_1 (protein)
chain: SLEEAEEELVKIAVRLNNPKLLRKILRAAEVFFGNPEEAEEFLHEAIEKVLGDPEEAERLVREAK
B5: il2ra_site1_3nfp_normal_mot_HHH_b1_01158_af2_000000001_0001_41_55_H_._7bb551d7edbef81cbb21b497237068a3_0001_0001_0000500024_0000001_0 (protein)
chain: DLEEILQRIEEILEELNTKMARDLLKAIEFLRRAAPPEEVIKAILWAAEAAGDPEVVRLLREAVK
B6: il2ra_site2_2erj_normal_mot_90f6a21de4ed711cb697bb9f61d9c40c_0001_af2_000000135_0001_36_50_H_._HHH_b2_03327_0002_0000100003_0000001_0_1_af2pred_0001_af2pred_swa … (protein)
chain: SSSDREEVAERVVEELVKELGLDEEAQKLLEASARSAIEAGASPEEIELFLRLMAEFLLERLSSS
B7: il2ra_site1_3nfp_normal_mot_e63b485c515f68499f2ec453e144b8a1_0001_af2_000000158_0001_38_51_H_._HEEHE_3312_0001_0000100021_0000001_0 (protein)
chain: DQEEEAERLAELLARAANVDEVSVEQENGEITVTFKGNDLDVKHAAKAAEKAAEALGVPLEVTTE
B8: il2ra_site2_2erj_sap_27_mot_c2bf78bdce995293a161f7082e24b401_0001_af2_000000000_0001_17_32_H_._HHH_b1_00672_0001_0000500047_0000001_0_0001 (protein)
chain: DEAEEIVKEIRELVERDSEEARERVREILEEVDKDTELSRAVMELAREDPRLQRAFYLAMRIAFS
B9: il2ra_site2_2erj_sap_18_mot_87b7e031a888ead1881e674a44c3f2a3_0001_1_af2_000000022_0001_37_50_H_._HHH_b2_01082_0001_0000600018_0000001_1_0001 (protein)
chain: NLIERFAQRQLEDGVPPEDIARSLLIALKAQGVPPEEVREIVRKVLEELLGNPEEAEEVLKRAEK
B10: il2ra_site2_3nfp_normal_mot_HHH_b1_05437_000000005_0001_40_57_H_._HHH_b2_00498_0001_0000300006_0000001_0 (protein)
chain: SSSSDEEQEEVEELLEEAKRIEDPEERRRVLAEATNIAYEAGDFEAFALVAEVLTELEHRSSSSS
B11: il2ra_site2_3nfp_normal_mot_HHH_b1_02297_000000279_0001_41_58_H_._HHH_b2_07462_af2_0001_0000200007_0000001_0_af2pred_0001_af2pred_swapped (protein)
chain: SSSSDEEIEEEVEKLLEEARKIEDEEEVKQILAKAALLAAEANNEELFAAVNEAFFELVASSSSS
B12: il2ra_site2_2erj_sap_30_mot_HHH_b1_08096_000000157_0001_36_51_H_._HHH_b1_06625_0001_0000500025_0000001_0_0001 (protein)
chain: SSSSSEKLHELYELLVILLRLVWEGDEEEFERVLEEAEELAEELNSRSAEEHLKLLKEQLSSSSS
B13: il2ra_site2_3nfp_normal_mot_HHH_b1_02096_000000221_0001_22_38_H_._HHH_b2_01811_0001_0000200024_0000001_1 (protein)
chain: SSSSSDELEALLQSAENLAKRIEDPEERRELEELIEELKEEGDPELAFELYELVAEILLGSSSSS
B14: il2ra_site2_2erj_normal_mot_HHH_eva_0142_000000014_0001_43_61_H_._HHH_b1_01907_0001_0000500019_0000001_0 (protein)
chain: SSSSSSDLEEEIEELIERAKKVEDPARAASILIEAVLLALELGNEELFREVSRLFEEVYSSSSSS
B15: il2ra_site2_3nfp_sap_27_mot_HHH_b1_07764_000000013_0001_24_39_H_._0298092c85f5e659a7318f113fe2d0a1_0001_0001_0000300021_0000001_0_0001_1 (protein)
chain: SSSSDEEVQEEVERLLEEAKHIEDPFELFAVLADARALAVQANDEELERLVARVSLELMQHSSSS
B16: il2ra_site1_3nfp_normal_mot_HHH_b2_05589_af2_000000178_0001_1_18_H_._HHH_b2_04217_af2_0001_0000100002_0000001_0_af2pred_0001_af2pred_1 (protein)
chain: SSSSSEELRELSELDRRLKEAIKEGDKEEAERIAEEAERLAEELGDELAQRLIRALLRLASSSSS
B17: il2ra_site1_2b5i_sap_15_mot_a1647c6a1bc1795bd61f8ac90a0f45d0_0001_1_000000140_0001_54_65_H_._HHH_b1_06101_af2_0001_0000100002_0000001_0_0001_af2pred_dldesign_0_ … (protein)
chain: SSSSSSDIEALIARAKELAAAGRRREALELLEEAYKLASAADDDELQDEIEALARELASSSSSSS
B18: il2ra_site2_2erj_sap_20_mot_HHH_b1_06196_000000171_0001_40_57_H_._HHH_b2_00375_af2_0001_0000300015_0000001_0_0001 (protein)
chain: SSSSSSVEEEVRKLLEEAERLYEEGNLHEVFRLAVEALRLASEHNNDELLEEIAEVVERLSSSSS
B19: il2ra_site1_3nfp_normal_mot_HHH_b1_01335_af2_000000258_0001_39_53_H_._HHH_b2_07455_0001_0000100003_0000001_0_af2pred_dldesign_0_af2pred (protein)
chain: SSSSSSAESKEALKLFEQASKEKDRKKAKEILEKALELAKKGGAKLLVKFIERCIKSLLSSSSSS

The target in the assay is il2ra, P01589. As to the kind of experiment: yeast display titration.
As to B1, the “apparent Kd” value is “inactive: no binding seen”.
Regarding B2, the “apparent Kd” value is “inactive: no binding seen”.
Consider B3, for which the “apparent Kd” value was “inactive: no binding seen”.
Take B4: the “apparent Kd” value is “inactive: no binding seen”.
On to B5, for which the “apparent Kd” value is “inactive: no binding seen”.
In the case of B6, the “apparent Kd” value is “inactive: no binding seen”.
Take B7: the “apparent Kd” value was “inactive: no binding seen”.
Regarding B8, the “apparent Kd” value is “inactive: no binding seen”.
On to B9, for which the “apparent Kd” value was “inactive: no binding seen”.
Take B10: the “apparent Kd” value was “inactive: no binding seen”.
As for B11, the “apparent Kd” value was “inactive: no binding seen”.
In the case of B12, the “apparent Kd” value was “inactive: no binding seen”.
Then B13, with “inactive: no binding seen”; and B14, with “inactive: no binding seen”.
Consider B15, for which the “apparent Kd” value was “inactive: no binding seen”.
The same measure for B16: “inactive: no binding seen”; for B17: “inactive: no binding seen”; for B18: “inactive: no binding seen”.
As for B19, the “apparent Kd” value is “inactive: no binding seen”.

(Values after publication PMC10163288.)
